Data taken from ChEMBL document CHEMBL3988442, “University of Dundee, Small-Polar-MMV Screening Library” (2021).

Sequences of proteins named here, by UniProt entry; tags and fusion partners are left off.
UniProt P9WFT3, whole entry: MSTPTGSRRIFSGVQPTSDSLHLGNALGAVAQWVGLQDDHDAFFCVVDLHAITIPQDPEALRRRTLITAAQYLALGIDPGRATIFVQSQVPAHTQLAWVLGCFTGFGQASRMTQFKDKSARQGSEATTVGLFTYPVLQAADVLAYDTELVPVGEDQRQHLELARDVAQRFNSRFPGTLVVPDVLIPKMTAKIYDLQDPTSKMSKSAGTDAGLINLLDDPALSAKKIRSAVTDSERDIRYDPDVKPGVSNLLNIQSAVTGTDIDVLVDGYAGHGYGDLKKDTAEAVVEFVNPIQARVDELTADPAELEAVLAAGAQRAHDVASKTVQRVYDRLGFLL
UniProt P9WPC5, whole entry: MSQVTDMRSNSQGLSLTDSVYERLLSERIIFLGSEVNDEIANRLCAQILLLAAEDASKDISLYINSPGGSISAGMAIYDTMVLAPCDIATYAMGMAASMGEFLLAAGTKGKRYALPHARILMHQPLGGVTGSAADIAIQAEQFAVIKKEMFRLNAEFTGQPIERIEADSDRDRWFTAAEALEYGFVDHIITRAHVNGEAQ
UniProt P9WPC3, whole entry partner: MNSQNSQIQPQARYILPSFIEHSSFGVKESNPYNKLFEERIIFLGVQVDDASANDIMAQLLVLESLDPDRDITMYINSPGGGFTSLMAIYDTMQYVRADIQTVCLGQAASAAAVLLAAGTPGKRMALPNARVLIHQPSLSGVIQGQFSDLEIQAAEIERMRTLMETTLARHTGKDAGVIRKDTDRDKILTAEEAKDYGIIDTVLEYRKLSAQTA

The filed quantity is “Percent Effect” (%).
How 0% and 100% were set is not recorded. Most values in the screen are low, and negative values occur.
Compounds were drawn at random from those tested, without regard to their results.
A dash means the value is not listed here; it may have been measured.

MtTrpRS: 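Enzyme assay of tryptophanyl-tRNA synthetase; the read-out is not stated. Target: Tryptophan-tRNA ligase, Mycobacterium tuberculosis (UniProt P9WFT3). Concentration: 10 µM. Direction is not recorded; retested compounds ran higher, which suggests that high means inhibition. Of about 65,000 compounds tested this way, about 64 (0.098%) reached 50% or more in at least one test.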
ClpP1P2: 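ClpP1P2, Mycobacterium tuberculosis (UniProt P9WPC5 and UniProt P9WPC3). Protease assay of ClpP1P2, read by the AMC dye that it sets free. Tested at 50 µM. Direction is inferred from only a few compounds that gave an IC50; most scored high, so higher reads as stronger inhibition. Most other retested compounds had strongly negative values. Of about 69,000 compounds tested this way, about 10 (0.015%) reached 50% or more in at least one test.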

structure,MtTrpRS,ClpP1P2
O=C(Nc1ccc(-c2cscn2)cc1)C1CCCN(Cc2ccon2)C1 (centres undefined),-1.638%,-7.44%
Cc1ccc(OC2CCN(S(=O)(=O)N(C)C)CC2)nc1,0.4519%,-9.339%
COCCN(C)C1COC2(CCN(Cc3cccc(F)c3)CC2)C1 (centres undefined),2.964%,1.223%
Cc1nn(C)c(C)c1CC(=O)N1CCCC(CNS(C)(=O)=O)C1 (centres undefined),-1.866%,12.35%
CC(NC(=O)NCCCn1cccn1)c1ccncc1 (centres undefined),1.376%,6.325%
O=C(c1ccccn1)N1CCc2ncc(Cn3cccn3)n2CC1,-7.89%,-8.058%
Cc1nc(N2CCCC2)ncc1-c1cc(O)nc(NCC2CCCO2)n1 (centres undefined),1.425%,1.106%
c1cnc(Nc2cncc(C3CCCN3)n2)cn1 (centres undefined),-10.06%,-90.76%
CCc1[nH]ncc1C(=O)N1CCOC(c2nc(C)n[nH]2)C1 (centres undefined),-5.879%,-0.6152%
CCCn1nc2c(cc1=O)CN(CC(=O)Nc1ccncc1)CC2,1.541%,-2.132%
COc1ccc(C2CCN(Cc3cscn3)CC2)cc1,6.102%,-10.21%
Cc1ncoc1C(=O)N1CCOC(CC2CCCCC2)C1 (centres undefined),4.75%,-1.398%
Cc1cnc(C(=O)Nc2cc(F)ccc2OCC2CCCO2)cn1 (centres undefined),2.522%,-15.03%
O=C(CCc1cccc(Cl)c1Cl)N1CCOCC1c1ncon1 (centres undefined),-4.309%,-7.127%
Cc1ccc(CCN2CCC(N(C)Cc3noc(C4CC4)n3)C2)cc1 (centres undefined),-1.262%,24.01%
Cc1ccc2nc(C)cc(C(=O)N[C@H]3COC[C@@H]3N3CCOCC3)c2c1,-1.767%,10.94%
Cc1cc(C)c(C#N)c(NCCn2cnnc2C(C)C)n1,-0.3028%,-11.36%
CN(C)CCN(C)C(=O)Cn1cccc2cc(-c3ccc(F)cc3)nc1-2,-3.201%,-548%
O=C(CC[C@@H]1CCCN2CCCC[C@H]12)NCCc1nc(O)cc(O)n1,-0.9054%,-14.61%
O=C(c1cnns1)N1CCN(c2ccc(F)cc2Cl)CC1,-4%,7.899%
Cc1n[nH]c(C)c1CNC(=O)NC1CCCN(c2ccccc2F)C1 (centres undefined),-0.5452%,-7.478%
Cn1nnc2c1C(COCC1CC1)CN(C(=O)Cc1ccsc1)C2 (centres undefined),2.756%,-5.864%
O=C(NCc1ccc(-c2ccn[nH]2)cc1)N1CCC(N2CCCC2)C1 (centres undefined),0.09747%,4.109%
c1coc(-c2nc(CNC3CCC4(CCNCC4)CC3)no2)c1,3.818%,2.924%
COCCN1CCC2(CC1)CC(NC(=O)CN(C)C)c1ccccc1O2 (centres undefined),-5.814%,-3.698%
C[C@H]1CN2C[C@H](O)CC2CN1Cc1ccc2nccnc2c1 (some centres undefined),3.465%,-13.26%
O=C(C1CC(F)(F)C1)N1C[C@@H]2CN(Cc3ccsc3)CCO[C@@H]2C1,-2.654%,-6.418%
CN(C)C(=O)CNC(=O)c1cc2c(s1)CCN2S(C)(=O)=O,-7.713%,-14.86%
O=C(NCCCn1ccnc1)c1cccnc1OCC(F)(F)F,-,-2.214%
COc1ccccc1C(=O)N1CCCC1c1ncc2c(n1)CCNC2 (centres undefined),-,3.769%
Cc1cccc(CN2CCC(c3nnsc3S(C)(=O)=O)CC2)n1,-,4.357%
Cc1cc(C(C)NC(=O)c2cnc3onc(C)c3c2)c(C)o1 (centres undefined),2.926%,9.434%
CCC(C)C(=O)NCc1cccc(N2CCCCC2=O)c1 (centres undefined),-3.499%,-4.334%
c1cc(CN2CCOCC3(CCN(CC4CCOCC4)CC3)C2)ccn1,-1.44%,-3.916%
Oc1ccc(-c2c(-c3ccccc3)ncn2C2CCNC2)cc1 (centres undefined),13.86%,1.025%
CC(C)Cc1cc(NC(=O)c2ccccc2F)n(C)n1,2.24%,-3.546%
COc1cccc(CN(C)Cc2ccccc2C#N)c1OC,-7.669%,3.814%
CCN(CC)c1ncnc2c(C)nn(CC)c12,1.872%,15.94%
Cc1cc(C)cc(OCCN(C)C2CCOC2=O)c1 (centres undefined),-1.698%,-2.322%
CCCn1nc2c(cc1=O)CN(Cc1c(C)noc1C)CC2,-0.2018%,-0.1418%
CC(CO)NS(=O)(=O)c1cccc(C(C)C)c1 (centres undefined),-1.232%,-11.4%
COCCOc1ccccc1C(=O)N(C)Cc1ncc(C)c(OC)c1C,2.848%,-2.177%
CCS(=O)(=O)N1CC(c2nc(-c3cccs3)no2)C1,-0.3943%,-9.376%
Cc1ccc(N2CC[C@H]3O[C@@H](C(=O)N4CCCO4)CC[C@H]32)nn1,-,20.51%
Cc1ccc(CN2CCC3(CC(=O)N(c4cccc(F)c4)C3)C2)o1 (centres undefined),-7.392%,-4.371%
CN(C)CC1(O)CCCN(c2ccnc3c(C(F)(F)F)cccc23)C1 (centres undefined),0.8909%,0.3209%
CCOc1cc(C)nc(N2CCN(C(=O)C(C)NC(C)=O)CC2)n1 (centres undefined),-5.49%,-18.21%
c1ccc(C2CCCN2Cc2nc(-c3cnccn3)no2)nc1 (centres undefined),3.229%,-6.824%
O=C(c1ccccn1)N1CCN(c2ccc(-n3cccc3)nn2)CC1,2.23%,-0.01337%
CCn1c(C)cc(C(=O)N2CCCC(n3nc(C)nc3C)C2)c1C (centres undefined),2.004%,9.049%
O=C(COc1ccccc1O)N1CCOC(C(F)(F)F)C1 (centres undefined),0.9709%,3.674%
CCc1c(C)nn(C)c1NC(=O)N1CCCOC(Cn2cccn2)C1 (centres undefined),-0.6849%,3.794%
CCOCc1ccc(NCc2cnc(N3CCN(C)CC3)nc2)cc1,0.4776%,-8.154%
COc1ccccc1CNC(Cc1cccs1)c1nc(C)cs1 (centres undefined),-1.333%,-10.51%
c1cc(-c2noc(-c3cc(C4CC4)on3)n2)cc(N2CCCCC2)n1,1.868%,-3.295%
Cc1cc2nc(C(C)C)cc(N(C)CC3CCN(C(C)C)C3)n2n1 (centres undefined),18.1%,31.39%
CCCOc1ccc(CN)c(OC(F)F)c1,-4.383%,-5.265%
Cc1ccc(C(=O)N2CCC3(CCN(C(=O)c4cccnc4)C3)CC2)o1,2.354%,9.834%
Fc1cccc(-c2nc(CN3CCCC3Cn3cccn3)co2)c1 (centres undefined),74.89%,-33.81%
Cc1ncc(Cl)c(C(=O)N2CCCC(n3nc(C)nc3C)C2)n1 (centres undefined),-0.104%,-39.44%
CC(=O)NC(c1cc(F)ccc1F)C1CC1 (centres undefined),-3.406%,0.1242%
O=S(=O)(Cc1ccccc1)NCCc1nnc2n1CCC2,-0.4772%,8.924%
O=C(NCC1CC1)C1CN(c2ncccn2)Cc2ccnn2C1 (centres undefined),-2.926%,-2.056%
N#Cc1ccc(N2CCN(c3nccs3)CC2)nc1,-5.161%,12.69%
CNC(=O)c1noc(CN2CC[C@](C)(O)[C@H](C)C2)n1,-2.687%,4.114%
Cc1ccccc1CNC(C)c1ccc(OCC(=O)NC2CC2)cc1 (centres undefined),19.81%,15.9%
CSCCc1c(-c2ccccc2)ncn1CCNc1cccnc1,-4.339%,-6.513%
O=C1CC[C@@H](CN(Cc2ccncc2)Cc2nc(-c3cccs3)no2)N1,0%,-16.29%
CC(C)C(=O)N1CCN(C(=O)c2cc(C(C)C)on2)[C@H]2CS(=O)(=O)C[C@H]21,16.68%,0.1222%
Cc1cccc(OCCNC(=O)CN2CCc3cncnc3C2)c1,-4.655%,-22.77%
COC(=O)c1ccc(N2CCN(CCC#N)C(C)C2)cc1 (centres undefined),-2.827%,7.503%
O=C(CN1C=Nc2ccccc2S1(=O)=O)NCCCc1ccccc1,0.1768%,-15.5%
CN(C)C[C@]12COC[C@H]1CN(C(=O)Cc1ccc3c(c1)OCO3)C2,-0.6975%,7.786%
CN(Cc1nc(Cc2cccc(C(F)(F)F)c2)no1)C1CCOCC1,-0.3132%,-17.35%
CCc1nnc2n1CCN(Cc1cc(Cl)c3c(c1)OCCCO3)C2,-6.193%,-12.46%
COCCNc1ccc(CNC(=O)Nc2cn[nH]c2)cc1,4.799%,-6.228%
COc1ccccc1CC(=O)N1CCCC1Cn1nc(C)cc1C (centres undefined),0.4237%,-32.5%
O=C(NCCCO)NCCc1cc(F)ccc1F,-3.259%,-1.007%
CC(C)C(=O)NCCNC(=O)CCOc1cccc(F)c1,-2.184%,-47.69%
CC(C)c1ncc2c(n1)CN(CC1CCCCO1)CC2 (centres undefined),-3.526%,-1.724%
CN(C)S(=O)(=O)N1CCC(Oc2cnccn2)CC1,5.182%,-2.491%

The first 5 entries again:

O=C(Nc1ccc(-c2cscn2)cc1)C1CCCN(Cc2ccon2)C1 (centres undefined) read MtTrpRS: -1.638%; ClpP1P2: -7.44%.
Cc1ccc(OC2CCN(S(=O)(=O)N(C)C)CC2)nc1 read MtTrpRS: 0.4519%; ClpP1P2: -9.339%.
COCCN(C)C1COC2(CCN(Cc3cccc(F)c3)CC2)C1 (centres undefined) read MtTrpRS: 2.964%; ClpP1P2: 1.223%.
Cc1nn(C)c(C)c1CC(=O)N1CCCC(CNS(C)(=O)=O)C1 (centres undefined) read MtTrpRS: -1.866%; ClpP1P2: 12.35%.
CC(NC(=O)NCCCn1cccn1)c1ccncc1 (centres undefined) read MtTrpRS: 1.376%; ClpP1P2: 6.325%.